Results reported in paper PMC10950863.
No constants are given. Whether binding was seen depends on the method and setting.

Sequences of proteins named here, by UniProt entry; tags and fusion partners are left off. Residues count along the entry.
N-terminal domain of human DNMT1 (residues 16–134), DNMT1^NL (P26358, residues 16-134): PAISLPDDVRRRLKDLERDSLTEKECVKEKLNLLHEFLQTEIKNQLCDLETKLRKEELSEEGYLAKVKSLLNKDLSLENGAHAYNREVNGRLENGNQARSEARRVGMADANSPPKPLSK
N-terminal domain of human DNMT1 (residues 16–93), DNMT1^N (P26358, residues 16-93): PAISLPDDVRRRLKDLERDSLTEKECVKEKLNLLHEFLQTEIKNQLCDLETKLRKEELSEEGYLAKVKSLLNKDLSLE

How the values were obtained:
[1] = target: N-terminal domain of human DNMT1 (residues 16–93), DNMT1^N (human) (UniProt P26358); experiment: SAXS; DNMT1^N in solution at 1, 2 and 3 mg/ml, no concentration dependence; Rg, Dmax and fit to the NMR structure; both purified
[2] = target: N-terminal domain of human DNMT1 (residues 16–93), DNMT1^N (human) (UniProt P26358); experiment: NMR 15N relaxation (rotational correlation time from R1 and R2); 15N-labelled protein in solution, 25 °C, 20 mM MES/Bis-Tris, 50 mM NaCl, pH 6.0; oligomeric state from τc; both purified
[3] = target: N-terminal domain of human DNMT1 (residues 16–134), DNMT1^NL (human) (UniProt P26358); experiment: as above

Substance	binding [1]	binding [2]	binding [3]
N-terminal domain of human DNMT1 (residues 16–93), DNMT1^N (from UniProt P26358 16-93) (domain or fragment)	no binding (tested: 1, 2, and 3 mg/ml)	no binding	
N-terminal domain of human DNMT1 (residues 16–134), DNMT1^NL (from UniProt P26358 16-134) (domain or fragment)			no binding
